In the supplement of paper PMC10735217:
This is one part of the list. This data set is noisy: repeats of one test often differ as much as different tests do.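 Human kidney-derived cells stably carry a construct in which eight TEAD-binding elements drive luciferase, measured by luminescence in a drug-repurposing library screen. A hit is any compound whose signal exceeds the plate mean by more than five robust Z scores.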

Tested on: HEK293A TEAD-LUC reporter
Assay: TEAD-luciferase reporter activity (YAP activation), robust Z score vs plate; higher = stronger YAP/TEAD activation
Conditions: 24 h

SMILES | TEAD-luciferase reporter activity (compound concentration: 200 nM) | TEAD-luciferase reporter activity (compound concentration: 2 uM) | TEAD-luciferase reporter activity (compound concentration: 10 uM)
C[C@H](CO)Nc1nc(SCc2cccc(F)c2F)nc2[nH]c(=O)sc12 | inactive: -0.527 | inactive: -0.797 | inactive: -1.27
CCc1nc2c(CC)cn(Cc3ccc(-c4ccccc4-c4nnn[nH]4)cc3)n2n1 | inactive: -0.752 | inactive: -0.729 | inactive: -0.0922
CN1C(N)=NS(=O)(=O)N=C1NCCSCc1csc(N=C(N)N)n1 [tuvatidine] | inactive: 0.99 | inactive: -0.23 | inactive: 3.16
CC(=C/C=C/C=C(C)\C=C\C=C(\C)C(=O)O)/C=C/C=C(/C)C(=O)O [transcrocetinate sodium] | inactive: -0.774 | inactive: -0.26 | inactive: -0.298
CC[C@H](C)n1cc(C)c2c(C(=O)NCc3c(C)cc(C)[nH]c3=O)cc(-c3ccc(N4CCNCC4)nc3)cc21 | inactive: -1.16 | inactive: -0.945 | inactive: -0.685
O=C1CC(c2cccc(Br)c2)C(=O)N1 (stereo not drawn) [brosuximide] | inactive: -1.05 | inactive: 0.879 | inactive: 0.193
O=C([O-])c1ccc2c(c1)nc(C(=O)NC1CCN(C3CC3)CC1)n2Cc1cc(-c2ccc(Cl)s2)on1 | inactive: -0.916 | inactive: 1.56 | inactive: 1.95
CN(c1ccc(/C=C/C[C@H](NC(=O)Cc2ccccc2)C(=O)O)cc1)c1ncccn1 | inactive: -0.569 | inactive: 0.507 | inactive: -0.00792
CS(=O)(=O)c1ccc(-c2cn3ccccc3n2)cc1 [zolimidine] | inactive: 0.76 | inactive: 0.602 | inactive: 0.733
c1ccc(Cc2nnn[nH]2)c(COc2ccc(OCc3ccc4ccccc4n3)cc2)c1 | inactive: -0.155 | inactive: -1.95 | inactive: -1.89
CCOc1ccc(-c2cccnc2)c(NC(=O)CC(C)N)c1 (stereo not drawn) | inactive: -0.812 | inactive: 0.0466 | active: 11
CSc1ccc(C(=O)c2cc(CC(=O)O)cc3ccoc23)cc1 [tifurac] | inactive: -1.09 | inactive: -1.45 | inactive: -0.678
CC(C)(C)C(=O)N1CCC(C(=O)N2CCC(N3Cc4ccccc4C3=O)CC2)CC1 | inactive: -0.622 |  | inactive: 2.64
Cc1nc(N)nc(N)c1-c1ccc(Cl)c(Cl)c1 [metoprine] | inactive: -2.37 | inactive: 0.306 | inactive: 0.919
CC/C=C\C/C=C\C/C=C\C/C=C\C/C=C\C/C=C\CCC(=O)O [docosahecaenoic Acid] |  | inactive: -1.45 | 
CC/C=C\C/C=C\C/C=C\C/C=C\C/C=C\C/C=C\CCC(=O)O [docosahecaenoic Acid, Nectid] | inactive: 0.0756 |  | inactive: -2.67
CCCCCC(=O)O[C@]1(C(C)=O)CC[C@H]2[C@@H]3CCC4=CC(=O)CC[C@]4(C)[C@H]3CC[C@@]21C [Hydroxyprogesterone caproate] | inactive: 0.491 |  | inactive: -2.46

Just TEAD-luciferase reporter activity (compound concentration: 2 uM) (three entries from above):
SMILES | TEAD-luciferase reporter activity (compound concentration: 2 uM)
CN1C(N)=NS(=O)(=O)N=C1NCCSCc1csc(N=C(N)N)n1 [tuvatidine] | inactive: -0.23
c1ccc(Cc2nnn[nH]2)c(COc2ccc(OCc3ccc4ccccc4n3)cc2)c1 | inactive: -1.95
CSc1ccc(C(=O)c2cc(CC(=O)O)cc3ccoc23)cc1 [tifurac] | inactive: -1.45

Next records:

SMILES | TEAD-luciferase reporter activity (compound concentration: 200 nM) | TEAD-luciferase reporter activity (compound concentration: 2 uM) | TEAD-luciferase reporter activity (compound concentration: 10 uM)
CCCCCC(=O)O[C@]1(C(C)=O)CC[C@H]2[C@@H]3CCC4=CC(=O)CC[C@]4(C)[C@H]3CC[C@@]21C [hydroxyprogesterone caproate] |  | inactive: -0.199 | 
CC(OC1CCN(C(=O)OC(C)(C)C)CC1)c1nc(-c2ccc(S(C)(=O)=O)c(F)c2)no1 (stereo not drawn) | inactive: -2.1 | inactive: -0.217 | inactive: 0.359
CC(=O)O[C@@H]1C[C@@H](CO)O[C@H]1n1c(=O)sc2cnc(N)nc21 | inactive: -1.24 | inactive: -0.722 | inactive: 0.809
CCOC(=O)CCS[C@H](CC(=O)OCC)c1ccccc1CCCCCCCCc1ccccc1 | inactive: -0.592 | inactive: -0.875 | inactive: 1.1
CC(=O)N[C@@H](CCCNC(=N)N)C(=O)NC1CSSCC(C(N)=O)NC(=O)[C@H](Cc2c[nH]c3ccccc23)NC(=O)[C@H](CCCNC(=N)N)NC(=O)[C@@H](Cc2ccccc2)NC(=O)[C@H](Cc2cnc[nH]2)NC(=O)[C@@H](C)NC1=O (stereo partly drawn) [Setmelanotide] | inactive: 1.04 | inactive: 0.157 | inactive: 0.385
CCCCC(CC)COC(=O)C(C#N)=C(c1ccccc1)c1ccccc1 (stereo not drawn) | inactive: 2.26 | inactive: -0.0876 | inactive: -0.391
COc1cc(OC)c(/C=C/S(=O)(=O)Cc2ccc(OC)c(OP(=O)(O)O)c2)c(OC)c1 [Briciclib sodium] | inactive: -1.03 | active: 5.06 | inactive: 0.931
Cc1cncc(CN2CCC(=C3c4ccc(Cl)cc4CCc4cccnc43)CC2)c1 [rupatadine] | inactive: -0.838 | inactive: -0.17 | active: 6.19
CN1CCC(=C2c3ccccc3CSc3ccccc32)CC1 | inactive: -1.64 | inactive: 2.82 | inactive: 4.29
C[C@]12CC[C@@H]3c4ccc(O)cc4CC[C@H]3[C@@H]1CCC2=O [Estrone] | inactive: 2.45 |  | inactive: 3.79
C[C@]12CC[C@@H]3c4ccc(O)cc4CC[C@H]3[C@@H]1CCC2=O |  | inactive: 1.95 | 
Cc1cc(C)n(-c2cccc([C@H](CC(=O)O)CN3CC[C@@H](CCc4ccc5c(n4)NCCC5)C3)c2)n1 | inactive: -2.4 | inactive: -2.1 | inactive: 0.996
CCN(CC)CCNC(=O)c1c(C)[nH]c(/C=C2\C(=O)Nc3ccc(F)cc32)c1C [Sunitinib Malate] | inactive: -3.22 |  | inactive: 1.3
CCN(CC)CCNC(=O)c1c(C)[nH]c(/C=C2\C(=O)Nc3ccc(F)cc32)c1C [Sunitinib malate] |  | inactive: 1.95 | 
CO[C@H]1/C=C/O[C@@]2(C)Oc3c(C)c(O)c4c(O)c(cc([O-])c4c3C2=O)NC(=O)/C(C)=C\C=C\[C@H](C)[C@H](O)[C@@H](C)[C@@H](O)[C@@H](C)[C@H](OC(C)=O)[C@@H]1C [rifamycin SV, Cosmo] | inactive: -0.188 |  | inactive: -0.243
CO[C@H]1/C=C/O[C@@]2(C)Oc3c(C)c(O)c4c(O)c(cc([O-])c4c3C2=O)NC(=O)/C(C)=C\C=C\[C@H](C)[C@H](O)[C@@H](C)[C@@H](O)[C@@H](C)[C@H](OC(C)=O)[C@@H]1C [rifamycin SV] |  | inactive: -1.57 | 
